# Test results: the supplement of paper PMC11732987, “Enantioselective OTUD7B fragment discovery through chemoproteomics screening and high-throughput optimisation” (Communications Chemistry, 2025)
# Chains of the proteins cited; added tags and fusions are not shown. Lines headed by an entry give the natural chain unless they say otherwise; changes in a name come on top.
# UniProt Q7Z628: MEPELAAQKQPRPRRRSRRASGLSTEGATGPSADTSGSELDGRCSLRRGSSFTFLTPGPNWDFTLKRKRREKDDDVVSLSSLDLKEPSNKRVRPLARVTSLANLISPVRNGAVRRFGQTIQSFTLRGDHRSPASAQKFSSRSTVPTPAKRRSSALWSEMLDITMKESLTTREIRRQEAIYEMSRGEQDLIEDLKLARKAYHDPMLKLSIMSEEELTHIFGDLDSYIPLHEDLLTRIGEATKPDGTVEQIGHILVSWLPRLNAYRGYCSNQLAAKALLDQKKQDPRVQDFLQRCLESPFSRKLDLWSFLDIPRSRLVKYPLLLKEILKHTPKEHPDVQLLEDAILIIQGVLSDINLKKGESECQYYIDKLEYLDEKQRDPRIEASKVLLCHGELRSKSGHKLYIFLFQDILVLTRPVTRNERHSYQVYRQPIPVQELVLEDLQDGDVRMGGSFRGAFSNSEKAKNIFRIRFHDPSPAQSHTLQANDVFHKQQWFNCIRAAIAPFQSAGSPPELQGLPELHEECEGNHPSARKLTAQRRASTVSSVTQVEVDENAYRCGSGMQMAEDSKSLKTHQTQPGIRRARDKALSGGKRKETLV
# UniProt P42695: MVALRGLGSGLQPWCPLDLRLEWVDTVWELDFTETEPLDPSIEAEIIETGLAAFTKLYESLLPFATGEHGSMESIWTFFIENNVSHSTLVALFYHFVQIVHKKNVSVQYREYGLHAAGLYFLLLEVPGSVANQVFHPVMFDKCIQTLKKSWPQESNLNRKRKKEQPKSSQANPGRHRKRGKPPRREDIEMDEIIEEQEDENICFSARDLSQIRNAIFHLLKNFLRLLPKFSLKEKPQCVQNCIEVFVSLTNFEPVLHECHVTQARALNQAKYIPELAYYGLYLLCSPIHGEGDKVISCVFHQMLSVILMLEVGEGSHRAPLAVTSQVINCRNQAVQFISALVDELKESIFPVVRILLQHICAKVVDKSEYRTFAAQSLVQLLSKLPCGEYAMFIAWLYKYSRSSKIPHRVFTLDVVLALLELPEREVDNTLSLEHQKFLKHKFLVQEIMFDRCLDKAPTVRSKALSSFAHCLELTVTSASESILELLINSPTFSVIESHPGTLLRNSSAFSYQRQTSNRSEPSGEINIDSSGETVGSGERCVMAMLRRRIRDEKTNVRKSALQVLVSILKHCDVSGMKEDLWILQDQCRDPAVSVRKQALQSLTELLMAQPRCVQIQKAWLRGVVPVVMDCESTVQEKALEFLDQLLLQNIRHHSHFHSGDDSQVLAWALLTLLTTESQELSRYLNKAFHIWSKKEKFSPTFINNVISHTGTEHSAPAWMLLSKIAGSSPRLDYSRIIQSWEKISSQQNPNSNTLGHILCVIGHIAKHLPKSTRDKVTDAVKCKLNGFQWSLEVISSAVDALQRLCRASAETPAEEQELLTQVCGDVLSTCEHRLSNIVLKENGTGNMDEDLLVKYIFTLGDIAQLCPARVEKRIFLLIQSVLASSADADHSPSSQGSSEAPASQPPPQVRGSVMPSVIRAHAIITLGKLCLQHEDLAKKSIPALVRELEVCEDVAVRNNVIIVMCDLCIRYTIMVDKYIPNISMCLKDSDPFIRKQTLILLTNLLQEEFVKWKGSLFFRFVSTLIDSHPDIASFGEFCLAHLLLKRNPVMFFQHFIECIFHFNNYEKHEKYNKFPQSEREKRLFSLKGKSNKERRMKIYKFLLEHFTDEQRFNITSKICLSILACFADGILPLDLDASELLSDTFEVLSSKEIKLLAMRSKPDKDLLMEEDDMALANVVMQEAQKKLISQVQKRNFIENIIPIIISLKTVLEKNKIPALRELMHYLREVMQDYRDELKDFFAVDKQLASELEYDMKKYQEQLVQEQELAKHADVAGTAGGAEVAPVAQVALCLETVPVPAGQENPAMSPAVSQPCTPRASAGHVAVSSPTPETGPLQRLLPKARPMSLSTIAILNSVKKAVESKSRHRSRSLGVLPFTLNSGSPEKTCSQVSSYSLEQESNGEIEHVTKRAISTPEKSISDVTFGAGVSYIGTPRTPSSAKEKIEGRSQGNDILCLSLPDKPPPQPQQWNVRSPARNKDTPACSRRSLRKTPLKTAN
# UniProt Q9Y314: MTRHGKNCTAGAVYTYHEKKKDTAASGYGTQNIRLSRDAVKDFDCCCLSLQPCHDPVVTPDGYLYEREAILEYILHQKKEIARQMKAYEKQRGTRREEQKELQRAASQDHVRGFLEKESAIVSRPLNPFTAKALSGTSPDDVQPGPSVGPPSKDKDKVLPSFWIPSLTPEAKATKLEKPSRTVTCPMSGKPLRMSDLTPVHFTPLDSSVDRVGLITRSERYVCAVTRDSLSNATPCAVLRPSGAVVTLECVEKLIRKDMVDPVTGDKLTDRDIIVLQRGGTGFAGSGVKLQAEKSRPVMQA
# UniProt P52849: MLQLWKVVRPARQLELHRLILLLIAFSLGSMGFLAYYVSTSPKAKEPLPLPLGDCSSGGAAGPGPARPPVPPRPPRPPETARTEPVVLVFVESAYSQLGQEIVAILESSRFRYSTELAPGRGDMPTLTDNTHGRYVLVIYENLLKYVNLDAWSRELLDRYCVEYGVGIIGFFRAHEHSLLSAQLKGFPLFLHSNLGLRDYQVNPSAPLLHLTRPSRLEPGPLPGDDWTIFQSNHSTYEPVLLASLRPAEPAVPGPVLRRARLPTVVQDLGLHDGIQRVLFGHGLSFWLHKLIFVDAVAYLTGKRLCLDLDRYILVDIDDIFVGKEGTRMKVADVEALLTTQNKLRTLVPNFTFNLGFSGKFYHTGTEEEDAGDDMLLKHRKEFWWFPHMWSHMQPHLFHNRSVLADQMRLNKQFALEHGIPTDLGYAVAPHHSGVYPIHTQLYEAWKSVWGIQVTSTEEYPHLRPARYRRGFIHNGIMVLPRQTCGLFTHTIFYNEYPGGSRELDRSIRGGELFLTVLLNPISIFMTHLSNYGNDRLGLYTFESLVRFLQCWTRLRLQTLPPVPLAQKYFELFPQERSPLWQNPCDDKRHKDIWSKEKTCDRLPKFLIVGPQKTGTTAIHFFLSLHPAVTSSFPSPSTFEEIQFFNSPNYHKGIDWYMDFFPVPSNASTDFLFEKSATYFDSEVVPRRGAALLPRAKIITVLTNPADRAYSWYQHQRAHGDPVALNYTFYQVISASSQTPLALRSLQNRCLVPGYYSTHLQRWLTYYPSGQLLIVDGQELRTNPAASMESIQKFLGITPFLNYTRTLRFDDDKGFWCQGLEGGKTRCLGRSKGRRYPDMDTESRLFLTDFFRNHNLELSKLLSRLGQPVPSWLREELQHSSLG
# UniProt Q8NC96: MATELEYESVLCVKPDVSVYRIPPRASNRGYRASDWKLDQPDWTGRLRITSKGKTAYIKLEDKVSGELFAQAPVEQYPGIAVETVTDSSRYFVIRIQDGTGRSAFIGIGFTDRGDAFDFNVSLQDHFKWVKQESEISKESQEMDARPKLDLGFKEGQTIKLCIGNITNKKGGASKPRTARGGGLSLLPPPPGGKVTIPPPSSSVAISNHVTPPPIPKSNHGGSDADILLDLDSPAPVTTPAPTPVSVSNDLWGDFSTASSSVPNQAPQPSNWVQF
# UniProt Q9H8H0: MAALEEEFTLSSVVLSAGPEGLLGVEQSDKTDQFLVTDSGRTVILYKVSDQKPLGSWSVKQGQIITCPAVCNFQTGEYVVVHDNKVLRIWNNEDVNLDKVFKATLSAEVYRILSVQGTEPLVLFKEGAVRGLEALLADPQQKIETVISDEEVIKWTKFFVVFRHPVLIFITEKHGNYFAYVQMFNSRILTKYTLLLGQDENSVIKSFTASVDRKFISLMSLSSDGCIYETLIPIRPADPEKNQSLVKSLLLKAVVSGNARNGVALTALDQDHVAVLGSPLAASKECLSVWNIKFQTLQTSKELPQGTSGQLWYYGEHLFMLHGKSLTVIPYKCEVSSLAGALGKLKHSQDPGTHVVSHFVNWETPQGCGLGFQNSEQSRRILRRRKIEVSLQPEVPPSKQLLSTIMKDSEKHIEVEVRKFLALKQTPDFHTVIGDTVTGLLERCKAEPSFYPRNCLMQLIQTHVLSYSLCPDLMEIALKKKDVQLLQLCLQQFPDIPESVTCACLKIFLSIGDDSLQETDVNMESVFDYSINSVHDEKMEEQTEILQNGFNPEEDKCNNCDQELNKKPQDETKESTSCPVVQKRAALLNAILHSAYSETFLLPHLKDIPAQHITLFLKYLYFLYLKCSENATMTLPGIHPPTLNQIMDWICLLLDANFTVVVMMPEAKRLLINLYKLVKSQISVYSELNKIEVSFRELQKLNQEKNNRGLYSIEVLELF
# UniProt Q86Y39: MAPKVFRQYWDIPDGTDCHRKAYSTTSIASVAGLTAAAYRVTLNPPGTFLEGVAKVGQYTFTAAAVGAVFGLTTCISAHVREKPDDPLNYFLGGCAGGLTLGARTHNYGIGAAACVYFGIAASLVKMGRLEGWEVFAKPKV
# UniProt Q9BYG3: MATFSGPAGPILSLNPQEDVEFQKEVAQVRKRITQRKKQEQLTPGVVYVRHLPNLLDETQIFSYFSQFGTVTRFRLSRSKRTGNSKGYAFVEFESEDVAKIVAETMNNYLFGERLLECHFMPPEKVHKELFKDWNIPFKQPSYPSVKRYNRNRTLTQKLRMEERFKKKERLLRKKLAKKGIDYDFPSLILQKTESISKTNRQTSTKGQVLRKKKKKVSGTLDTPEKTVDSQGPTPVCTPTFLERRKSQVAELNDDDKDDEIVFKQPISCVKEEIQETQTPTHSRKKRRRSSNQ
# UniProt Q69YL0: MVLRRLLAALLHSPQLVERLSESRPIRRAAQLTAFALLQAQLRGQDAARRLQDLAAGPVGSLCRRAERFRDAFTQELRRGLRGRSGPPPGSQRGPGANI
# UniProt P30414: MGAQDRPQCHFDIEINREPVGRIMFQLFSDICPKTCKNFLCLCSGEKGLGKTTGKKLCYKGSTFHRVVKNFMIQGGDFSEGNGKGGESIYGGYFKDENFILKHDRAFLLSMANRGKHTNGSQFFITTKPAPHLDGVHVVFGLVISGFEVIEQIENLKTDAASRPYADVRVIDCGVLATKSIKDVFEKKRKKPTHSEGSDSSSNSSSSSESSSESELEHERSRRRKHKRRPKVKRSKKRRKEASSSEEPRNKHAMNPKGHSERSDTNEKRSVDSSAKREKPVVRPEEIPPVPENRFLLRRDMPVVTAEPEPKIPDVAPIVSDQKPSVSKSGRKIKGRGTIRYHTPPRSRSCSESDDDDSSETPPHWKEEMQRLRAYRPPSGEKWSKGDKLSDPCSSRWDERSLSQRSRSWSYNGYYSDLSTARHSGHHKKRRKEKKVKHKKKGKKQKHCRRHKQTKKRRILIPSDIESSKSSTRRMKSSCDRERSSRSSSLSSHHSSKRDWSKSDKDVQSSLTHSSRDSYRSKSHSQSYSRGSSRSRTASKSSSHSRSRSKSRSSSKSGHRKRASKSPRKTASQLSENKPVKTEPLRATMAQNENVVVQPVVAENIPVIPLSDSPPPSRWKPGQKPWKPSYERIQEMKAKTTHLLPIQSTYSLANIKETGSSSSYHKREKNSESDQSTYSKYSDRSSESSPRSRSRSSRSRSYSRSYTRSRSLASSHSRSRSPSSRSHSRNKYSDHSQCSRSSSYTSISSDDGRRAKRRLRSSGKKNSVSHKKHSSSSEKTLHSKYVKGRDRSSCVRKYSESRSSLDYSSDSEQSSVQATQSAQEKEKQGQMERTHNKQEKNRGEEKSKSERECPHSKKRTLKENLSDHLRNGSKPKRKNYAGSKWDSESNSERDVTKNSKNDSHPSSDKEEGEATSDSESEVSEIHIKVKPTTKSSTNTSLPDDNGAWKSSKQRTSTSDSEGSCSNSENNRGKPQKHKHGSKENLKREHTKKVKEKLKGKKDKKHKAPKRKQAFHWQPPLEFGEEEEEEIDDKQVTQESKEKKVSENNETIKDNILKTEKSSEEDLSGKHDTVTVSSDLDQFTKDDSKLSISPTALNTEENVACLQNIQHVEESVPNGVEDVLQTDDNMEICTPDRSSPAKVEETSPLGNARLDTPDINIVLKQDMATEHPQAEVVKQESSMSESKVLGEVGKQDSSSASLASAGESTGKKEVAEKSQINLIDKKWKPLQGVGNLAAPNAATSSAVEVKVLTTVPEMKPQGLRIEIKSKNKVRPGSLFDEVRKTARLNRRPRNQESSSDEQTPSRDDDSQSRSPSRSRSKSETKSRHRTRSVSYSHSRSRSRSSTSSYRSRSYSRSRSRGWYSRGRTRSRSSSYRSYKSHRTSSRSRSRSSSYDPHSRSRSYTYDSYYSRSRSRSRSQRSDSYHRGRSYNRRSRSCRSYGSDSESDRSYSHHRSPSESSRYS
# The list shows a part of the results. The data scatter; read single values as rough.
# Compound: ClCC(=O)N[C@@H]1CCCc2ccccc12
# Assay: log2 mean competition ratio of IA-DTB cysteine labelling (DMSO/compound) (log2 ratio); higher = stronger cysteine engagement by compound
# Details: 50 µM; treatment time: 4 h; cell line lysate: HEK293T
# Method: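 IA-DTB competitive cysteine chemoproteomics in HEK293T RIPA lysate. Lysates were treated with compound 29 or 30 at 50 or 200 µM for 4 h, then IA-DTB (500 µM, 1 h), trypsin-digested, NeutrAvidin-enriched and analysed by diaPASEF. Competition ratio = intensity DMSO / intensity compound (n=4 treated, n=64 DMSO); binding: mean log2 CR ≥ 1 and p ≤ 0.05 plus QC filters. Target is the cysteine site.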
row,Target,log2 mean competition ratio
1,NGLY1 C484 (UniProt Q96IV0),-0.0367
2,NET1 C556 (UniProt Q7Z628),0.448
3,NF1 C324 (UniProt P21359),-0.235
4,NCAPD3 C15 (UniProt P42695),0.596
5,NOSIP C185 (UniProt Q9Y314),0.0562
6,NCL C543,-0.0205
7,NDST2 C585 (UniProt P52849),-0.325
8,NCBP1 C36 (UniProt Q09161),-0.32
9,NECAP1 C162 (UniProt Q8NC96),0.107
10,NCAPH C309 (UniProt Q15003),-0.0116
11,NOL11 C578 (UniProt Q9H8H0),-0.122
12,"NELFA_(C131,C131,C141,C141) (UniProt Q9H3P2)",-0.0963
13,NCAPG C509 (UniProt Q9BPX3),-0.177
14,NDUFA11 C18 (UniProt Q86Y39),-0.425
15,NIFK C237 (UniProt Q9BYG3),-0.242
16,NCBP2AS2 C63 (UniProt Q69YL0),0.307
17,NEK9 C623 (UniProt Q8TD19),0.632
18,NAT10 C658 (UniProt Q9H0A0),0.212
19,NIFK C118 (UniProt Q9BYG3),0.0369
20,NKTR C393 (UniProt P30414),-0.111
21,NFKBIB C6 (UniProt Q15653),-0.0937

# Same assay, conditions: 200 µM; treatment time: 4 h; cell line lysate: HEK293T
row,Target,log2 mean competition ratio
1,NGLY1 C484 (UniProt Q96IV0),-0.123
2,NET1 C556 (UniProt Q7Z628),0.0191
3,NF1 C324 (UniProt P21359),0.16
4,NCAPD3 C15 (UniProt P42695),0.218
5,NOSIP C185 (UniProt Q9Y314),-0.0327
6,NCL C543,-0.207
7,NCBP1 C36 (UniProt Q09161),0.258
8,NECAP1 C162 (UniProt Q8NC96),-0.0342
9,NCAPH C309 (UniProt Q15003),0.0616
10,NOL11 C578 (UniProt Q9H8H0),0.0772
11,"NELFA_(C131,C131,C141,C141) (UniProt Q9H3P2)",0.611
12,NCAPG C509 (UniProt Q9BPX3),-0.107
13,NDUFA11 C18 (UniProt Q86Y39),0.406
14,NIFK C237 (UniProt Q9BYG3),0.319
15,NCBP2AS2 C63 (UniProt Q69YL0),0.0972
16,NEK9 C623 (UniProt Q8TD19),0.534
17,NAT10 C658 (UniProt Q9H0A0),0.307
18,NIFK C118 (UniProt Q9BYG3),-0.0894
19,NKTR C393 (UniProt P30414),0.18
20,NFKBIB C6 (UniProt Q15653),0.378
